Data published in the supplement of paper PMC10032668.
The other results are listed elsewhere or left out. Only hits are listed; about a third recur on repeated control peptides.

Amino acid sequences for entries named in this document (tags omitted).
CCNB1, P14635, UniProt P14635, whole entry: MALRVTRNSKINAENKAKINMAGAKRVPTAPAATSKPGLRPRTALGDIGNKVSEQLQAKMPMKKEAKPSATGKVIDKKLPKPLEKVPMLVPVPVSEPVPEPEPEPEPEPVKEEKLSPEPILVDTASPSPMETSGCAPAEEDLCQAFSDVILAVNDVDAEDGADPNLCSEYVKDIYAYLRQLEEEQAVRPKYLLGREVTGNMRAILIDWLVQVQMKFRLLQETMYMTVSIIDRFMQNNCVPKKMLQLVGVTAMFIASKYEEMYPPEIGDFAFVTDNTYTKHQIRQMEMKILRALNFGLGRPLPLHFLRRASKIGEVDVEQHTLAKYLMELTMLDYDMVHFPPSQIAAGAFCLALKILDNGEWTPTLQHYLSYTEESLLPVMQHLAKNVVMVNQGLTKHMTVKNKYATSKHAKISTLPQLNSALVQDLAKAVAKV
CSNK2B, P67870, UniProt P67870, whole entry: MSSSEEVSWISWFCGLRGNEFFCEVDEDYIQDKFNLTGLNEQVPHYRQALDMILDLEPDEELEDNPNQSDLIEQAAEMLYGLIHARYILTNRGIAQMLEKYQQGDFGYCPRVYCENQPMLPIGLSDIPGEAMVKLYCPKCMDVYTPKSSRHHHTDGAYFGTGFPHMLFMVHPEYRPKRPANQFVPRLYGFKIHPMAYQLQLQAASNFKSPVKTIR
IK, Q13123, UniProt Q13123, whole entry: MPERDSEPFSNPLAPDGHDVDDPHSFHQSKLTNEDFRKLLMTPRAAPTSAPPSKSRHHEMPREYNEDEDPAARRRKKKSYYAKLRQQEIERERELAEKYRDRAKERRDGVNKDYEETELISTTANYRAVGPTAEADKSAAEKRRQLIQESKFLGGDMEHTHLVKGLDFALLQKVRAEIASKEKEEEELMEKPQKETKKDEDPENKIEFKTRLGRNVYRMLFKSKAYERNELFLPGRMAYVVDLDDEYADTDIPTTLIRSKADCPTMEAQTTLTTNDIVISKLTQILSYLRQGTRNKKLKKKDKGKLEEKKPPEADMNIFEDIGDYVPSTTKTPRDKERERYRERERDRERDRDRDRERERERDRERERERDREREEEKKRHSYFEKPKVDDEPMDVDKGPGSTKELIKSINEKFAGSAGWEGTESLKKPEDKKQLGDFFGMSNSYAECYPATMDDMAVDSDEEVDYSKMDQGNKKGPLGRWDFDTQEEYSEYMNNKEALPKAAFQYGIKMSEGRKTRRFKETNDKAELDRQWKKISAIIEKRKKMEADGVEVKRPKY
NCAPD2, Q15021, UniProt Q15021, whole entry: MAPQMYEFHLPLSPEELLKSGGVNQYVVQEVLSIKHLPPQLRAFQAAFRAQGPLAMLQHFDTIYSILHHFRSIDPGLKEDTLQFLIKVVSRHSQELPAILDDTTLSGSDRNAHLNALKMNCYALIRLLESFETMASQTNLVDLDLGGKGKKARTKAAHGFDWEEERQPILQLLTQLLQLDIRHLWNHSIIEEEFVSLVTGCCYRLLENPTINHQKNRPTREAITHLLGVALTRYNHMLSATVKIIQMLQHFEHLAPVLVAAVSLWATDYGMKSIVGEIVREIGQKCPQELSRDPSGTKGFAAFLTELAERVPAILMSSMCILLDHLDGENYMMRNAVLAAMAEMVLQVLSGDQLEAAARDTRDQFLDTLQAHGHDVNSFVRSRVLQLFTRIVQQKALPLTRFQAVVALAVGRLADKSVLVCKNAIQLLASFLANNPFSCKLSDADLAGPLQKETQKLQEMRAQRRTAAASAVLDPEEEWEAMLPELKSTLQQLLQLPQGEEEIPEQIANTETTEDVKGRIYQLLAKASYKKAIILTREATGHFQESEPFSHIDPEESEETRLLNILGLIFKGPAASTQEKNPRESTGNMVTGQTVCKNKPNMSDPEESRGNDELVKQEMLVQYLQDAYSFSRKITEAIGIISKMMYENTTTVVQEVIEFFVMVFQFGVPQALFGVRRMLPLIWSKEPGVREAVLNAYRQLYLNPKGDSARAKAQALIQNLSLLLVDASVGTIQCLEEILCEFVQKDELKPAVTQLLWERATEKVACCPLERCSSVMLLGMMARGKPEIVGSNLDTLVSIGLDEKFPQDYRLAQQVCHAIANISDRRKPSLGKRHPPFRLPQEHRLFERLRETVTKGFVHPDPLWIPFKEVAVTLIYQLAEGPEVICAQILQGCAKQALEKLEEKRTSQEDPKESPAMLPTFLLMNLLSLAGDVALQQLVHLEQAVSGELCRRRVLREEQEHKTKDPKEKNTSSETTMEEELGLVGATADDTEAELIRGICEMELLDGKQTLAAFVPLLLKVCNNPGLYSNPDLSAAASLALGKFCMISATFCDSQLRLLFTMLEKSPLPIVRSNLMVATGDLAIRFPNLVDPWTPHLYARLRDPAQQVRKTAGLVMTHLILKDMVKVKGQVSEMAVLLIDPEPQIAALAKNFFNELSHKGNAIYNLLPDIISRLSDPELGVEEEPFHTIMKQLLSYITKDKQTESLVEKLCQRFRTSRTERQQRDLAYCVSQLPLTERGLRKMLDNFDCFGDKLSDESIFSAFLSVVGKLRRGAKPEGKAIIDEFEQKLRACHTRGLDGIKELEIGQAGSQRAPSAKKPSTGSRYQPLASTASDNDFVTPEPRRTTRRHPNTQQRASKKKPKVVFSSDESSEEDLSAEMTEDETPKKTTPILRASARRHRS
SNRPD1, P62314, UniProt P62314, whole entry: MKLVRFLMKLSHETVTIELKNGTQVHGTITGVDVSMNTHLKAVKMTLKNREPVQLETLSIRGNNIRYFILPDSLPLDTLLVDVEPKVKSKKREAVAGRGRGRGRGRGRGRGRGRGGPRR
TPM4, P67936, UniProt P67936, whole entry: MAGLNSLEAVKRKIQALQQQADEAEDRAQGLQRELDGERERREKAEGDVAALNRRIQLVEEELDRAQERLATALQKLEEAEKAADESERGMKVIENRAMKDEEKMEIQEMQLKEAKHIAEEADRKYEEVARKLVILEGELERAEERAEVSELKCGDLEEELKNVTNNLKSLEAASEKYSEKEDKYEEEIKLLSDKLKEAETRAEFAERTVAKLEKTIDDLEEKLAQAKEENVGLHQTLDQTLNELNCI
RCC2, Q9P258, UniProt Q9P258, whole entry: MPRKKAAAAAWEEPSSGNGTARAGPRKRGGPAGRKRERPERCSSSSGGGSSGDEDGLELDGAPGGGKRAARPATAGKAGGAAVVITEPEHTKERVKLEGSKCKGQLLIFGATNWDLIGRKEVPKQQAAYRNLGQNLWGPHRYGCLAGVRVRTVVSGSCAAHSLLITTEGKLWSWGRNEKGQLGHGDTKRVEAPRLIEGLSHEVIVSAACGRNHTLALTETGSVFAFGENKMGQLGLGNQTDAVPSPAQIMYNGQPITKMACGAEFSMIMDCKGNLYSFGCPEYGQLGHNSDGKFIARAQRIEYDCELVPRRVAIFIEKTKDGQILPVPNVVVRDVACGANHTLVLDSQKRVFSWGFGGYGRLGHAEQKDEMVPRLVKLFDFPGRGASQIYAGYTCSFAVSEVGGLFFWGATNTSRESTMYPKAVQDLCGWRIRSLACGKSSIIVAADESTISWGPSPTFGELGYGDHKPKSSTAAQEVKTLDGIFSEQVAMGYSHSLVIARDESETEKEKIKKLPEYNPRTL
IDH1, O75874, UniProt O75874, whole entry: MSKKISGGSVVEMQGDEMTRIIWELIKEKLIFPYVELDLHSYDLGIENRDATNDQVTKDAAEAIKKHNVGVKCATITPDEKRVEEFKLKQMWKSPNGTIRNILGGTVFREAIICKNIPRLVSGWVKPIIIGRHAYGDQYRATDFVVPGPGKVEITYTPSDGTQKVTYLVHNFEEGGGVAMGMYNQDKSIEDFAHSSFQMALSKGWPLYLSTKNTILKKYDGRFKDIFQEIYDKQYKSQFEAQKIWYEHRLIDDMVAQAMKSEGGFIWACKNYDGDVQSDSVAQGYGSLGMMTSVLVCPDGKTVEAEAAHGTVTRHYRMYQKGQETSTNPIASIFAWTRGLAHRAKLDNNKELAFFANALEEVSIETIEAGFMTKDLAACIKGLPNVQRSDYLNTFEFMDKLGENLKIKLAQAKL
POLR1C, O15160, UniProt O15160, whole entry: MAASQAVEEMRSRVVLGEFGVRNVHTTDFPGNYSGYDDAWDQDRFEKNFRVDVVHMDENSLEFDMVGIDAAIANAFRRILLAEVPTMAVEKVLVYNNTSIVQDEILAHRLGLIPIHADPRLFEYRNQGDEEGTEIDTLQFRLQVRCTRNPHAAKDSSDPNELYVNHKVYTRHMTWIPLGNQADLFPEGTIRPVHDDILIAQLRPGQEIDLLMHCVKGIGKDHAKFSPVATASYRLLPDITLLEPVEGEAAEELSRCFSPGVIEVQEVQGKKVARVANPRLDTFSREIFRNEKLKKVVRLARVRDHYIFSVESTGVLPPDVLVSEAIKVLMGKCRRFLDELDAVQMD

Tests used:
Assay in all cases: PRISMA enrichment of interactor (LFQ) in peptide spot vs all other peptide spots (log2 fold change); higher = stronger / more specific binding of the interactor to the peptide
ACOT9, Q9Y305 = molecular target: ACOT9, Q9Y305
Description: (§1)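 PRISMA: 15-aa overlapping tiles (offset 8 aa) of 60 microproteins, plus SOS1/GLUT1 control peptides, were spot-synthesized on cellulose membranes in triplicate. Membranes were incubated with benzonase-treated HEK293T lysate, and bound proteins were identified by LC-MS/MS with LFQ. Enrichment is the log2 fold change of each protein in one spot versus all other spots. Only interactors passing the significance cutoff are listed.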

ARMC6, Q6NXE6 = molecular target: ARMC6, Q6NXE6
Description: as §1

ATP5PF, P18859 = molecular target: ATP5PF, P18859
Description: as §1

BAZ1A, Q9NRL2 = molecular target: BAZ1A, Q9NRL2
Description: as §1

CCNB1, P14635 = molecular target: CCNB1, P14635
Description: as §1

CMPK1, P30085 = molecular target: CMPK1, P30085
Description: as §1

CSNK2A1, P68400 = molecular target: CSNK2A1, P68400
Description: as §1

CSNK2B, P67870 = molecular target: CSNK2B, P67870
Description: as §1

DCUN1D5, Q9BTE7 = molecular target: DCUN1D5, Q9BTE7
Description: as §1

DDX47, Q9H0S4 = molecular target: DDX47, Q9H0S4
Description: as §1

DSG2, Q14126 = molecular target: DSG2, Q14126
Description: as §1

ENSA, O43768 = molecular target: ENSA, O43768
Description: as §1

GPATCH4, Q5T3I0 = molecular target: GPATCH4, Q5T3I0
Description: as §1

IK, Q13123 = molecular target: IK, Q13123
Description: as §1

KTN1, Q86UP2 = molecular target: KTN1, Q86UP2
Description: as §1

LLPH, Q9BRT6 = molecular target: LLPH, Q9BRT6
Description: as §1

LPCAT3, Q6P1A2 = molecular target: LPCAT3, Q6P1A2
Description: as §1

MAP1B, P46821 = molecular target: MAP1B, P46821
Description: as §1

METAP1, P53582 = molecular target: METAP1, P53582
Description: as §1

MRPS14, O60783 = molecular target: MRPS14, O60783
Description: as §1

MRPS33, Q9Y291 = molecular target: MRPS33, Q9Y291
Description: as §1

NCAPD2, Q15021 = molecular target: NCAPD2, Q15021
Description: as §1

NFS1, Q9Y697 = molecular target: NFS1, Q9Y697
Description: as §1

NUP43, Q8NFH3 = molecular target: NUP43, Q8NFH3
Description: as §1

POLR2A, P24928 = molecular target: POLR2A, P24928
Description: as §1

PPAN-P2RY11 = molecular target: PPAN-P2RY11
Description: as §1

PRPF40A, O75400 = molecular target: PRPF40A, O75400
Description: as §1

REPIN1, Q9BWE0 = molecular target: REPIN1, Q9BWE0
Description: as §1

RPL7L1, Q6DKI1 = molecular target: RPL7L1, Q6DKI1
Description: as §1

SAMHD1, Q9Y3Z3 = molecular target: SAMHD1, Q9Y3Z3
Description: as §1

SBDS, Q9Y3A5 = molecular target: SBDS, Q9Y3A5
Description: as §1

SLC35B2, Q8TB61 = molecular target: SLC35B2, Q8TB61
Description: as §1

SMC3, Q9UQE7 = molecular target: SMC3, Q9UQE7
Description: as §1

SMIM12, Q96EX1 = molecular target: SMIM12, Q96EX1
Description: as §1

SNRPD1, P62314 = molecular target: SNRPD1, P62314
Description: as §1

TFB2M, Q9H5Q4 = molecular target: TFB2M, Q9H5Q4
Description: as §1

TIMM8B, Q9Y5J9 = molecular target: TIMM8B, Q9Y5J9
Description: as §1

TNPO3, Q9Y5L0 = molecular target: TNPO3, Q9Y5L0
Description: as §1

TPM4, P67936 = molecular target: TPM4, P67936
Description: as §1

TXLNG, Q9NUQ3 = molecular target: TXLNG, Q9NUQ3
Description: as §1

URB2, Q14146 = molecular target: URB2, Q14146
Description: as §1

USP7, Q93009 = molecular target: USP7, Q93009
Description: as §1

CBX3, Q13185 = molecular target: CBX3, Q13185
Description: as §1

CSDE1, O75534 = molecular target: CSDE1, O75534
Description: as §1

DIS3, Q9Y2L1 = molecular target: DIS3, Q9Y2L1
Description: as §1

FOCAD, Q5VW36 = molecular target: FOCAD, Q5VW36
Description: as §1

HAT1, O14929 = molecular target: HAT1, O14929
Description: as §1

PFKM, P08237 = molecular target: PFKM, P08237
Description: as §1

[1] = substrate: PPIF, P30405
Description: as §1

PYCR1, P32322 = molecular target: PYCR1, P32322
Description: as §1

RCC2, Q9P258 = molecular target: RCC2, Q9P258
Description: as §1

SPCS2, Q15005 = molecular target: SPCS2, Q15005
Description: as §1

ZNF317, Q96PQ6 = molecular target: ZNF317, Q96PQ6
Description: as §1

CCDC124, Q96CT7 = molecular target: CCDC124, Q96CT7
Description: as §1

CLPTM1, O96005 = molecular target: CLPTM1, O96005
Description: as §1

EIF4G2, P78344 = molecular target: EIF4G2, P78344
Description: as §1

IDH1, O75874 = molecular target: IDH1, O75874
Description: as §1

MTOR, P42345 = molecular target: MTOR, P42345
Description: as §1

MYEF2, Q9P2K5 = molecular target: MYEF2, Q9P2K5
Description: as §1

NAA35, Q5VZE5 = molecular target: NAA35, Q5VZE5
Description: as §1

POLR1C, O15160 = molecular target: POLR1C, O15160
Description: as §1

RBM10 = molecular target: RBM10
Description: as §1

RBM22, Q9NW64 = molecular target: RBM22, Q9NW64
Description: as §1

RSL1D1, O76021 = molecular target: RSL1D1, O76021
Description: as §1

SEMG2, Q02383 = molecular target: SEMG2, Q02383
Description: as §1

SETD7, Q8WTS6 = molecular target: SETD7, Q8WTS6
Description: as §1

SPTLC1, O15269 = molecular target: SPTLC1, O15269
Description: as §1

TRIM28, Q13263 = molecular target: TRIM28, Q13263
Description: as §1

ZNF326, Q5BKZ1 = molecular target: ZNF326, Q5BKZ1
Description: as §1

SELVLPQSQAGKPLT [NAV2-AS2_2]
PRISMA enrichment of interactor (log2) (ACOT9, Q9Y305): 4.31
PRISMA enrichment of interactor (log2) (ARMC6, Q6NXE6): 6.7
PRISMA enrichment of interactor (log2) (ATP5PF, P18859): 4.46
PRISMA enrichment of interactor (log2) (BAZ1A, Q9NRL2): 5.21
PRISMA enrichment of interactor (log2) (CCNB1, P14635): 4.19
PRISMA enrichment of interactor (log2) (CMPK1, P30085): 4.52
PRISMA enrichment of interactor (log2) (CSNK2A1, P68400): 5.1
PRISMA enrichment of interactor (log2) (CSNK2B, P67870): 4.46
PRISMA enrichment of interactor (log2) (DCUN1D5, Q9BTE7): 5.07
PRISMA enrichment of interactor (log2) (DDX47, Q9H0S4): 10.8
PRISMA enrichment of interactor (log2) (DSG2, Q14126): 4.61
PRISMA enrichment of interactor (log2) (ENSA, O43768): 4.63
PRISMA enrichment of interactor (log2) (GPATCH4, Q5T3I0): 4.82
PRISMA enrichment of interactor (log2) (IK, Q13123): 5.85
PRISMA enrichment of interactor (log2) (KTN1, Q86UP2): 4.18
PRISMA enrichment of interactor (log2) (LLPH, Q9BRT6): 4.64
PRISMA enrichment of interactor (log2) (LPCAT3, Q6P1A2): 4.36
PRISMA enrichment of interactor (log2) (MAP1B, P46821): 4.78
PRISMA enrichment of interactor (log2) (METAP1, P53582): 5.35
PRISMA enrichment of interactor (log2) (MRPS14, O60783): 4.97
PRISMA enrichment of interactor (log2) (MRPS33, Q9Y291): 4.29
PRISMA enrichment of interactor (log2) (NCAPD2, Q15021): 5.08
PRISMA enrichment of interactor (log2) (NFS1, Q9Y697): 4.48
PRISMA enrichment of interactor (log2) (NUP43, Q8NFH3): 5.23
PRISMA enrichment of interactor (log2) (POLR2A, P24928): 5.12
PRISMA enrichment of interactor (log2) (PPAN-P2RY11): 4.6
PRISMA enrichment of interactor (log2) (PRPF40A, O75400): 6.08
PRISMA enrichment of interactor (log2) (REPIN1, Q9BWE0): 4.24
PRISMA enrichment of interactor (log2) (RPL7L1, Q6DKI1): 4.07
PRISMA enrichment of interactor (log2) (SAMHD1, Q9Y3Z3): 3.92
PRISMA enrichment of interactor (log2) (SBDS, Q9Y3A5): 4.61
PRISMA enrichment of interactor (log2) (SLC35B2, Q8TB61): 6.27
PRISMA enrichment of interactor (log2) (SMC3, Q9UQE7): 5.17
PRISMA enrichment of interactor (log2) (SMIM12, Q96EX1): 4.7
PRISMA enrichment of interactor (log2) (SNRPD1, P62314): 4.88
PRISMA enrichment of interactor (log2) (TFB2M, Q9H5Q4): 4.79
PRISMA enrichment of interactor (log2) (TIMM8B, Q9Y5J9): 5.48
PRISMA enrichment of interactor (log2) (TNPO3, Q9Y5L0): 4.87
PRISMA enrichment of interactor (log2) (TPM4, P67936): 4.2
PRISMA enrichment of interactor (log2) (TXLNG, Q9NUQ3): 4.82
PRISMA enrichment of interactor (log2) (URB2, Q14146): 4.59
PRISMA enrichment of interactor (log2) (USP7, Q93009): 4.7

ECSPPTFPALCGHLI [RP11-432J24.5_2]
PRISMA enrichment of interactor (log2) (ACOT9, Q9Y305): 5.61
PRISMA enrichment of interactor (log2) (CBX3, Q13185): 7.79
PRISMA enrichment of interactor (log2) (CSDE1, O75534): 5.79
PRISMA enrichment of interactor (log2) (DIS3, Q9Y2L1): 6.92
PRISMA enrichment of interactor (log2) (FOCAD, Q5VW36): 3.77
PRISMA enrichment of interactor (log2) (HAT1, O14929): 5.78
PRISMA enrichment of interactor (log2) (PFKM, P08237): 4.57
PRISMA enrichment of interactor (log2) [1]: 5.61
PRISMA enrichment of interactor (log2) (PYCR1, P32322): 4.81
PRISMA enrichment of interactor (log2) (RCC2, Q9P258): 6.01
PRISMA enrichment of interactor (log2) (SPCS2, Q15005): 4.84
PRISMA enrichment of interactor (log2) (ZNF317, Q96PQ6): 3.82

DLLKMCTSTCSLKIP [PRR34-AS1]
PRISMA enrichment of interactor (log2) (ACOT9, Q9Y305): 5.9
PRISMA enrichment of interactor (log2) (CCDC124, Q96CT7): 4.6
PRISMA enrichment of interactor (log2) (CLPTM1, O96005): 4.3
PRISMA enrichment of interactor (log2) (EIF4G2, P78344): 8.14
PRISMA enrichment of interactor (log2) (IDH1, O75874): 3.92
PRISMA enrichment of interactor (log2) (MTOR, P42345): 7.21
PRISMA enrichment of interactor (log2) (MYEF2, Q9P2K5): 3.65
PRISMA enrichment of interactor (log2) (NAA35, Q5VZE5): 7.23
PRISMA enrichment of interactor (log2) (POLR1C, O15160): 5.63
PRISMA enrichment of interactor (log2) (RBM10): 4.83
PRISMA enrichment of interactor (log2) (RBM22, Q9NW64): 5.85
PRISMA enrichment of interactor (log2) (RSL1D1, O76021): 4.86
PRISMA enrichment of interactor (log2) (SEMG2, Q02383): 5.06
PRISMA enrichment of interactor (log2) (SETD7, Q8WTS6): 5.05
PRISMA enrichment of interactor (log2) (SPTLC1, O15269): 4.08
PRISMA enrichment of interactor (log2) (TRIM28, Q13263): 7.16
PRISMA enrichment of interactor (log2) (ZNF326, Q5BKZ1): 10.2
